{"source": "the supplement of paper PMC8728848", "binders": {"B1": {"name": "PX14343E-bfa-545-24-545 (Bacteroides fragilis) (protein)", "chain": "LDRYPQEELSDGSFWKTPDDANKVVSDLYGYLSTWDQDNDINSDNATMGIKWAAGNVSKGIYDPADQGWSGDYANVRQCNLILSKIDEIPDYPEADKTKALGQVYFFRAYIYFNLIRSFGDVPYIDKPLDLKDMEGITRMPRAEVYEKIMADFDKAIAALPTEWGASDYGRVTKGAAMAMKARAALYYGNWDTAATEAKNVMDLGLYELYDKDNTGKYAELFWEKADGCDEFILVTQFNYPDKTHYLMGWECFPTKGWGGMNPTQSLVDAFEDSEGAPISKSKIYDPTDPFKNRDPRLEVDILHDGEEMYGVTIKVAPLASSGSTGINQHNDATETGYYGQKWLDPSLDPLSDGWNMGKDWVHIRYAEVLLTYAEAKNELQGLDPEAFDAVNQVRRRVGMPELQNTDPSKPTYCATQDDLRQRIRNEWRVEFCLEGGKRMWDIRRWGIAKDVLNAPFEGLKYKIVDNPNDPDKKVDGGKMCILYQGDPIILSGSRYSDNNYLFPVPQSEIDLNPALTQNPGY"}}, "assay_in_all_cases": "glycan array binding signal (z-score within array); higher = stronger binding", "settings_in_all_cases": "glycan notation: IUPAC condensed, linker removed", "key": {"[1]": {"target": "Fuc(a1-2)[GalNAc(a1-3)]Gal(b1-3)GlcNAc(b1-6)GalNAc", "how_it_was_run": "(§1)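 The Consortium for Functional Glycomics database supplied 3228 glycan arrays, of which those lacking an available protein sequence were dropped. The binding signal, a within-array Z-score, was averaged across arrays of the same protein sequence and across linkers. Negative scores can be read as non-binding.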"}, "[2]": {"target": "Fuc(a1-2)[GalNAc(a1-3)]Gal(b1-4)Glc", "how_it_was_run": "as §1"}, "[3]": {"target": "Fuc(a1-2)[GalNAc(a1-3)]Gal(b1-4)GlcNAc", "how_it_was_run": "as §1"}, "[4]": {"target": "Fuc(a1-2)[GalNAc(a1-3)]Gal(b1-4)GlcNAc(b1-2)Man", "how_it_was_run": "as §1"}, "[5]": {"target": "Fuc(a1-2)[GalNAc(a1-3)]Gal(b1-4)GlcNAc(b1-2)Man(a1-3)[Fuc(a1-2)[GalNAc(a1-3)]Gal(b1-4)GlcNAc(b1-2)Man(a1-6)]Man(b1-4)GlcNAc(b1-4)GlcNAc", "how_it_was_run": "as §1"}, "[6]": {"target": "Fuc(a1-2)[GalNAc(a1-3)]Gal(b1-4)GlcNAc(b1-2)Man(a1-3)[Fuc(a1-2)[GalNAc(a1-3)]Gal(b1-4)GlcNAc(b1-2)Man(a1-6)]Man(b1-4)GlcNAc(b1-4)[Fuc(a1-6)]GlcNAc", "how_it_was_run": "as §1"}, "[7]": {"target": "Fuc(a1-2)[GalNAc(a1-3)]Gal(b1-4)GlcNAc(b1-3)Gal(b1-4)GlcNAc", "how_it_was_run": "as §1"}, "[8]": {"target": "Fuc(a1-2)[GalNAc(a1-3)]Gal(b1-4)GlcNAc(b1-3)Gal(b1-4)GlcNAc(b1-3)Gal(b1-4)GlcNAc", "how_it_was_run": "as §1"}, "[9]": {"target": "Fuc(a1-2)[GalNAc(a1-3)]Gal(b1-4)GlcNAc(b1-3)GalNAc", "how_it_was_run": "as §1"}, "[10]": {"target": "Fuc(a1-2)[GalNAc(a1-3)]Gal(b1-4)GlcNAc(b1-3)[Fuc(a1-2)[GalNAc(a1-3)]Gal(b1-4)GlcNAc(b1-6)]GalNAc", "how_it_was_run": "as §1"}, "[11]": {"target": "Fuc(a1-2)[GalNAc(a1-3)]Gal(b1-4)GlcNAc(b1-6)GalNAc", "how_it_was_run": "as §1"}, "[12]": {"target": "Fuc(a1-2)[GalNAc(a1-3)]Gal(b1-4)[Fuc(a1-3)]GlcNAc", "how_it_was_run": "as §1"}, "[13]": {"target": "Fuc(a1-2)[GalNAc(a1-3)]Gal(b1-4)[Fuc(a1-3)]GlcNAc(b1-3)GalNAc", "how_it_was_run": "as §1"}, "[14]": {"target": "Fuc(a1-2)[GalNAc(a1-4)]Gal(b1-4)GlcNAc", "how_it_was_run": "as §1"}, "[15]": {"target": "Fuc(a1-2)[GalNAc(b1-3)]Gal", "how_it_was_run": "as §1"}, "Fuc(a1-3)GlcNAc": {"target": "Fuc(a1-3)GlcNAc", "how_it_was_run": "as §1"}, "[16]": {"target": "Fuc(a1-3)[Gal(b1-4)]Glc6S", "how_it_was_run": "as §1"}, "[17]": {"target": "Fuc(a1-3)[Gal(b1-4)]GlcNAc", "how_it_was_run": "as §1"}, "[18]": {"target": "Fuc(a1-3)[Gal(b1-4)]GlcNAc(b1-2)Man", "how_it_was_run": "as §1"}, "[19]": {"target": "Fuc(a1-3)[Gal(b1-4)]GlcNAc(b1-2)Man(a1-3)[Fuc(a1-3)[Gal(b1-4)]GlcNAc(b1-2)Man(a1-6)]Man(b1-4)GlcNAc(b1-4)GlcNAc", "how_it_was_run": "as §1"}, "[20]": {"target": "Fuc(a1-3)[Gal(b1-4)]GlcNAc(b1-2)Man(a1-3)[Fuc(a1-3)[Gal(b1-4)]GlcNAc(b1-2)Man(a1-6)]Man(b1-4)GlcNAc(b1-4)[Fuc(a1-6)]GlcNAc", "how_it_was_run": "as §1"}, "[21]": {"target": "Fuc(a1-3)[Gal(b1-4)]GlcNAc(b1-3)Gal(b1-3)[Fuc(a1-4)]GlcNAc", "how_it_was_run": "as §1"}, "[22]": {"target": "Fuc(a1-3)[Gal(b1-4)]GlcNAc(b1-3)Gal(b1-4)[Fuc(a1-3)]GlcNAc", "how_it_was_run": "as §1"}, "[23]": {"target": "Fuc(a1-3)[Gal(b1-4)]GlcNAc(b1-3)Gal(b1-4)[Fuc(a1-3)]GlcNAc(b1-3)Gal(b1-4)[Fuc(a1-3)]GlcNAc", "how_it_was_run": "as §1"}, "[24]": {"target": "Fuc(a1-3)[Gal(b1-4)]GlcNAc(b1-3)GalNAc", "how_it_was_run": "as §1"}, "[25]": {"target": "Fuc(a1-3)[Gal(b1-4)]GlcNAc(b1-6)GalNAc", "how_it_was_run": "as §1"}, "[26]": {"target": "Fuc(a1-3)[Gal(b1-4)]GlcNAc(b1-6)[Gal(b1-3)GlcNAc(b1-3)]Gal(b1-4)Glc", "how_it_was_run": "as §1"}, "[27]": {"target": "Fuc(a1-3)[Gal(b1-4)]GlcNAc6S", "how_it_was_run": "as §1"}, "[28]": {"target": "Fuc(a1-3)[Gal3S(b1-4)]Glc", "how_it_was_run": "as §1"}, "[29]": {"target": "Fuc(a1-3)[Gal3S(b1-4)]GlcNAc", "how_it_was_run": "as §1"}, "[30]": {"target": "Fuc(a1-3)[Gal3S(b1-4)]GlcNAc6S", "how_it_was_run": "as §1"}, "[31]": {"target": "Fuc(a1-3)[GalNAc(b1-4)]GlcNAc", "how_it_was_run": "as §1"}, "[32]": {"target": "Fuc(a1-3)[GalNAc(b1-4)]GlcNAc6S", "how_it_was_run": "as §1"}, "Fuc(a1-4)GlcNAc": {"target": "Fuc(a1-4)GlcNAc", "how_it_was_run": "as §1"}, "Fuc(b1-3)GlcNAc": {"target": "Fuc(b1-3)GlcNAc", "how_it_was_run": "as §1"}, "Gal(a1-2)Gal": {"target": "Gal(a1-2)Gal", "how_it_was_run": "as §1"}, "Gal(a1-3)Gal": {"target": "Gal(a1-3)Gal", "how_it_was_run": "as §1"}, "Gal(a1-3)Gal(b1-3)GlcNAc": {"target": "Gal(a1-3)Gal(b1-3)GlcNAc", "how_it_was_run": "as §1"}, "[33]": {"target": "Gal(a1-3)Gal(b1-3)GlcNAc(b1-2)Man", "how_it_was_run": "as §1"}, "[34]": {"target": "Gal(a1-3)Gal(b1-3)GlcNAc(b1-2)Man(a1-3)[Gal(a1-3)Gal(b1-3)GlcNAc(b1-2)Man(a1-6)]Man(b1-4)GlcNAc(b1-4)GlcNAc", "how_it_was_run": "as §1"}, "[35]": {"target": "Gal(a1-3)Gal(b1-3)GlcNAc(b1-3)GalNAc", "how_it_was_run": "as §1"}, "[36]": {"target": "Gal(a1-3)Gal(b1-3)GlcNAc(b1-6)GalNAc", "how_it_was_run": "as §1"}, "[37]": {"target": "Gal(a1-3)Gal(b1-3)[Fuc(a1-4)]GlcNAc(b1-2)Man(a1-3)[Gal(a1-3)Gal(b1-3)[Fuc(a1-4)]GlcNAc(b1-2)Man(a1-6)]Man(b1-4)GlcNAc(b1-4)GlcNAc", "how_it_was_run": "as §1"}, "Gal(a1-3)Gal(b1-4)Glc": {"target": "Gal(a1-3)Gal(b1-4)Glc", "how_it_was_run": "as §1"}, "Gal(a1-3)Gal(b1-4)GlcNAc": {"target": "Gal(a1-3)Gal(b1-4)GlcNAc", "how_it_was_run": "as §1"}}, "note": "Some of the results follow."}
{"binder": "B1", "values": [{"measurement": "glycan array binding signal (z-score)", "setting": "[1]", "value": -0.998}, {"measurement": "glycan array binding signal (z-score)", "setting": "[2]", "value": -0.466}, {"measurement": "glycan array binding signal (z-score)", "setting": "[3]", "value": -0.287}, {"measurement": "glycan array binding signal (z-score)", "setting": "[4]", "value": -0.621}, {"measurement": "glycan array binding signal (z-score)", "setting": "[5]", "value": 1.44}, {"measurement": "glycan array binding signal (z-score)", "setting": "[6]", "value": 0.994}, {"measurement": "glycan array binding signal (z-score)", "setting": "[7]", "value": -0.646}, {"measurement": "glycan array binding signal (z-score)", "setting": "[8]", "value": -0.373}, {"measurement": "glycan array binding signal (z-score)", "setting": "[9]", "value": -0.508}, {"measurement": "glycan array binding signal (z-score)", "setting": "[10]", "value": -0.307}, {"measurement": "glycan array binding signal (z-score)", "setting": "[11]", "value": 0.103}, {"measurement": "glycan array binding signal (z-score)", "setting": "[12]", "value": 0.004}, {"measurement": "glycan array binding signal (z-score)", "setting": "[13]", "value": 0.635}, {"measurement": "glycan array binding signal (z-score)", "setting": "[14]", "value": -0.813}, {"measurement": "glycan array binding signal (z-score)", "setting": "[15]", "value": -0.716}, {"measurement": "glycan array binding signal (z-score)", "setting": "Fuc(a1-3)GlcNAc", "value": -0.519}, {"measurement": "glycan array binding signal (z-score)", "setting": "[16]", "value": -0.456}, {"measurement": "glycan array binding signal (z-score)", "setting": "[17]", "value": -0.254}, {"measurement": "glycan array binding signal (z-score)", "setting": "[18]", "value": 0.56}, {"measurement": "glycan array binding signal (z-score)", "setting": "[19]", "value": 4.63}, {"measurement": "glycan array binding signal (z-score)", "setting": "[20]", "value": 1.08}, {"measurement": "glycan array binding signal (z-score)", "setting": "[21]", "value": 0.483}, {"measurement": "glycan array binding signal (z-score)", "setting": "[22]", "value": 1.39}, {"measurement": "glycan array binding signal (z-score)", "setting": "[23]", "value": 0.244}, {"measurement": "glycan array binding signal (z-score)", "setting": "[24]", "value": 1.3}, {"measurement": "glycan array binding signal (z-score)", "setting": "[25]", "value": 0.581}, {"measurement": "glycan array binding signal (z-score)", "setting": "[26]", "value": -0.048}, {"measurement": "glycan array binding signal (z-score)", "setting": "[27]", "value": -1.05}, {"measurement": "glycan array binding signal (z-score)", "setting": "[28]", "value": -0.931}, {"measurement": "glycan array binding signal (z-score)", "setting": "[29]", "value": -0.676}, {"measurement": "glycan array binding signal (z-score)", "setting": "[30]", "value": 0.797}, {"measurement": "glycan array binding signal (z-score)", "setting": "[31]", "value": 0.672}, {"measurement": "glycan array binding signal (z-score)", "setting": "[32]", "value": 0.495}, {"measurement": "glycan array binding signal (z-score)", "setting": "Fuc(a1-4)GlcNAc", "value": -0.837}, {"measurement": "glycan array binding signal (z-score)", "setting": "Fuc(b1-3)GlcNAc", "value": -0.51}, {"measurement": "glycan array binding signal (z-score)", "setting": "Gal(a1-2)Gal", "value": 0.553}, {"measurement": "glycan array binding signal (z-score)", "setting": "Gal(a1-3)Gal", "value": -0.002}, {"measurement": "glycan array binding signal (z-score)", "setting": "Gal(a1-3)Gal(b1-3)GlcNAc", "value": 0.188}, {"measurement": "glycan array binding signal (z-score)", "setting": "[33]", "value": -0.223}, {"measurement": "glycan array binding signal (z-score)", "setting": "[34]", "value": 0.086}, {"measurement": "glycan array binding signal (z-score)", "setting": "[35]", "value": 0.177}, {"measurement": "glycan array binding signal (z-score)", "setting": "[36]", "value": 0.238}, {"measurement": "glycan array binding signal (z-score)", "setting": "[37]", "value": 2.95}, {"measurement": "glycan array binding signal (z-score)", "setting": "Gal(a1-3)Gal(b1-4)Glc", "value": -0.693}, {"measurement": "glycan array binding signal (z-score)", "setting": "Gal(a1-3)Gal(b1-4)GlcNAc", "value": -1.27}]}
